No constants are given. Whether binding was seen depends on the method and setting. Binding seen in cells or lysates may run through a third protein. Some binding calls cover weakened binding; strength is not graded here. Tags and fused reporters may be left off the sequences shown.

Holding throughout (assay): pull-down; MBP-Isc10 forms coexpressed with Smk1, Ssp2^KAD-GST and Cak1 in E. coli BL-21 DE3; soluble extract bound to amylose beads at 4 °C, washed with lysis buffer (25 mM Tris-Cl pH 7.4, 5 mM MgCl2, 300 mM NaCl, 1 mM DTT, 0.5% NP-40); bound Smk1 and Ssp2 (GST) detected by immunoblot
Assay [1] addresses T1, MBP-Isc10-S97A (S. cerevisiae) (UniProt P32645).
T1 sequence: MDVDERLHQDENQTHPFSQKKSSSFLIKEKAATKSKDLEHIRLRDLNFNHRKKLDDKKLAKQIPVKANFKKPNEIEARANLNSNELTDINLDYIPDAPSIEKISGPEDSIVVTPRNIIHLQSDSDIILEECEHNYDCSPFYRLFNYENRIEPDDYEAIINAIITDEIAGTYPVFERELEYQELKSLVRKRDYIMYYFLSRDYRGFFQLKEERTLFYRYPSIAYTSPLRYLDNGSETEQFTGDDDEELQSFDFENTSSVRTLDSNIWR

Assay [2] has as its target T2, MBP-Isc10-S97D (S. cerevisiae) (UniProt P32645).
T2 sequence: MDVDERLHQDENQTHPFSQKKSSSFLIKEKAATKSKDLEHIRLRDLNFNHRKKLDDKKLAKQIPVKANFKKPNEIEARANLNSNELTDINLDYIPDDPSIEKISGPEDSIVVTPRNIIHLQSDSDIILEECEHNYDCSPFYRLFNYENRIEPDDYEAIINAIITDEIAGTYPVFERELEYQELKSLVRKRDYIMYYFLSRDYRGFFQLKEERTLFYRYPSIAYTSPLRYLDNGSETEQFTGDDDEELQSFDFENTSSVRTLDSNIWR

Assay [3] concerns the target T3, MBP-Isc10^1-140 (S. cerevisiae) (UniProt P32645).
T3 sequence: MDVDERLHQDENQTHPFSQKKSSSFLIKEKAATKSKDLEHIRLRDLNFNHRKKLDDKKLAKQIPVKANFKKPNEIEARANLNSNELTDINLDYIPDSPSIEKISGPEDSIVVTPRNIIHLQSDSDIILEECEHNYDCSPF

The target in assay [4] is T4, MBP-Isc10^111-267 (S. cerevisiae) (UniProt P32645).
T4 sequence: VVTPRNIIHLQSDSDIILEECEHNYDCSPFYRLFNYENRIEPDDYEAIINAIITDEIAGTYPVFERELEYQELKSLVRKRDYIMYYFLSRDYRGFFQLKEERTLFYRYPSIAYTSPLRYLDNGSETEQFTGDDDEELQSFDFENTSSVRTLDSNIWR

B1: Smk1 (enzyme, UniProt P41808 1-388)
chain: MNCTLTDNTRAINVASNLGAPQQRTIFAKERISIPGYYEIIQFLGKGAYGTVCSVKFKGRSPAARIAVKKISNIFNKEILLKRAIRELKFMNFFKGHKNIVNLIDLEIVTSSPYDGLYCYQELIDYDLAKVIHSSVQLSEFHIKYFLYQILCGLKYIHSADVIHRDLKPGNILCTLNGCLKICDFGLARGIHAGFFKCHSTVQPHITNYVATRWYRAPELLLSNQPYSKSVDIWAVGCILAEFYARKPVFMGRDSMHQIFEIIKVLGTPDKDILIKFGTIKAWNLGKNSNNPVYKKIPWSNIFPFASHEAINLIESLLHWDSTHRLNVEQAISHPFLNEVRKPDDEPVCLQGPFDFTYESELNSMSKLRDYLVEEVKNFKTDLSSSSL
B1: the binding result is given as “binds” in assay [1], “binds” in assay [2], “no binding” in assay [3] and “binds” in assay [4].

B2: Ssp2^KAD-GST (Ssp2 residues 137-371 fused to glutathione-S-transferase) (domain or fragment, UniProt Q08646 137-371)
chain: KGKVYSEESEVVDEKTAGSQNPALLKTRSISLNDIPRGTGISSVLSQVRGGSLERIIVYRYDTPERSLHKVDLFFLNYEGAQSFMRYAKTNIFKVNGVQLKPEWIFLESTYENIMKEQSVNRIIEEEKFISRCLIVKKSSTTAMPNKSNLNKGQTLENIDIQELEKDFQNFGEVLEITPIVSRKLCVSIFFYDISSAMRAMEEYEQKGSYLYNKYFKTWTIWYGKDITDQPCIDL
In the case of B2, the binding entry in assay [1] is “binds”; in assay [2], “binds”; in assay [3], “no binding”; in assay [4], “binds”.

Source of the values: PMC9558048.
